From paper PMC5996148 come the findings set out here.

Some test systems named below: ICA1L (human); ICEBERG (human); IDH3B (human); IDI2 (human); IFI35 (human); IFIH1 (human); IFIT3 (human); IFITM2 (human).
Assay in all cases: protein microarray (ProtoArray v5.0), streptavidin-Alexa Fluor 647
Common to all, as to conditions: 3'-biotin; 20 mM Tris (pH 7.5), 5 mM MgCl2, 100 mM KCl, 0.1% Tween-20, A/T-rich and random oligonucleotide blockers; temperature not stated; high values mean tight binding

The subject of test [1] is Huntingtin-interacting protein M (human).
Test [2] relates to Hydroxysteroid dehydrogenase-like protein 1 (human).

Values joined by “and” are separate entries in the source; they are usually repeats but may differ in a detail not shown here. Equal values may be shown once. This is one part of the list.

“GGGAGGCTGAGGCAGG [G4-1 biotinylated (PQS2)]”: the binding signal in test [1] was -0.34 z-score; in test [2] it was -0.335 z-score; in the test on ICA1L (human), -0.324 z-score and -0.3 z-score; in the test on ICEBERG (human) it was -0.344 z-score; in the test with IDH3B (human), -0.31 z-score; with IDI2 (human), -0.303 z-score. For the same sequence, the binding signal in the test with IFI35 (human) was -0.338 z-score; with IFIH1 (human), -0.317 z-score; with IFIT3 (human), -0.365 z-score; in the test with IFITM2 (human), -0.257 z-score.
